Values quoted from earlier work as cited in US20190054093A1, “TREATMENT OF SARCOPENIA WITH ECDYSTEROIDS” (priority 2014, published 2019).

Conditions: adult and sexually immature animals; cited from earlier work

Row | Compound | increase of γ-globulins in blood serum
1 | CC(C)(O)CC[C@@H](O)[C@](C)(O)[C@H]1CC[C@@]2(O)C3=CC(=O)[C@@H]4C[C@@H](O)[C@@H](O)C[C@]4(C)[C@H]3[C@H](O)C[C@]12C [turkesterone] | statistically significant
2 | turkesterone tetraacetate | statistically significant
